Measured values published in publication PMC10880206.
These are yes or no findings as the source states them, for the method shown. In cells and extracts the contact can be indirect. Some binding calls cover weakened binding; strength is not graded here. For some of these results: Where a sequence is shown, tags or fusion partners need not be part of it.

The chains behind the UniProt entries cited, without tags or fusion partners.
UniProt P42224: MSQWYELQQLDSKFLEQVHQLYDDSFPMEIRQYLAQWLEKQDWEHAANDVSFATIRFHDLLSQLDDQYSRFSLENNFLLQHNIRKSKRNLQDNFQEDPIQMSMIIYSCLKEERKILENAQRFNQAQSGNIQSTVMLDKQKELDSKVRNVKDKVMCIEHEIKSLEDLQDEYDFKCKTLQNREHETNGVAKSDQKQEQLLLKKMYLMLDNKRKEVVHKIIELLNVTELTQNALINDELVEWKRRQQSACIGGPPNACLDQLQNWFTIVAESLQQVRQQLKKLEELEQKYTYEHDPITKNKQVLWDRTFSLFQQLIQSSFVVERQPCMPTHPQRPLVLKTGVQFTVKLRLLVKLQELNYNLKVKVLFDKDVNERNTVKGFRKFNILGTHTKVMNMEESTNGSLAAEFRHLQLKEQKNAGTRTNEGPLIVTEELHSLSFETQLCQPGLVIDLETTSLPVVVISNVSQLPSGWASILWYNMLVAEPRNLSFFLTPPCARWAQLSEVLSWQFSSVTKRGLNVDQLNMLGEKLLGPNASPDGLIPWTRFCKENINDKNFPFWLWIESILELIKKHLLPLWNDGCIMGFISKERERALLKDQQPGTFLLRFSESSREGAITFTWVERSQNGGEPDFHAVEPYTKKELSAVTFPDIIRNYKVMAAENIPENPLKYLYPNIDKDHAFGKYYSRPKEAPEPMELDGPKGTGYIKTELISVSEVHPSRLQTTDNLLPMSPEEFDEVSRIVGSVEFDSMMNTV

Legend:
[1] = target: T1, LATS1 (endogenous, KLE cells) (human (endogenous in KLE)) (UniProt O95835); assay: co-IP; endogenous proteins in KLE cell lysate, pre-cleared with protein-A/G agarose; immunoprecipitated overnight with anti-LATS1, anti-LATS2 or anti-STAT1 antibody, then protein-A/G agarose 2 h at 4 °C; western blotting
T1 sequence: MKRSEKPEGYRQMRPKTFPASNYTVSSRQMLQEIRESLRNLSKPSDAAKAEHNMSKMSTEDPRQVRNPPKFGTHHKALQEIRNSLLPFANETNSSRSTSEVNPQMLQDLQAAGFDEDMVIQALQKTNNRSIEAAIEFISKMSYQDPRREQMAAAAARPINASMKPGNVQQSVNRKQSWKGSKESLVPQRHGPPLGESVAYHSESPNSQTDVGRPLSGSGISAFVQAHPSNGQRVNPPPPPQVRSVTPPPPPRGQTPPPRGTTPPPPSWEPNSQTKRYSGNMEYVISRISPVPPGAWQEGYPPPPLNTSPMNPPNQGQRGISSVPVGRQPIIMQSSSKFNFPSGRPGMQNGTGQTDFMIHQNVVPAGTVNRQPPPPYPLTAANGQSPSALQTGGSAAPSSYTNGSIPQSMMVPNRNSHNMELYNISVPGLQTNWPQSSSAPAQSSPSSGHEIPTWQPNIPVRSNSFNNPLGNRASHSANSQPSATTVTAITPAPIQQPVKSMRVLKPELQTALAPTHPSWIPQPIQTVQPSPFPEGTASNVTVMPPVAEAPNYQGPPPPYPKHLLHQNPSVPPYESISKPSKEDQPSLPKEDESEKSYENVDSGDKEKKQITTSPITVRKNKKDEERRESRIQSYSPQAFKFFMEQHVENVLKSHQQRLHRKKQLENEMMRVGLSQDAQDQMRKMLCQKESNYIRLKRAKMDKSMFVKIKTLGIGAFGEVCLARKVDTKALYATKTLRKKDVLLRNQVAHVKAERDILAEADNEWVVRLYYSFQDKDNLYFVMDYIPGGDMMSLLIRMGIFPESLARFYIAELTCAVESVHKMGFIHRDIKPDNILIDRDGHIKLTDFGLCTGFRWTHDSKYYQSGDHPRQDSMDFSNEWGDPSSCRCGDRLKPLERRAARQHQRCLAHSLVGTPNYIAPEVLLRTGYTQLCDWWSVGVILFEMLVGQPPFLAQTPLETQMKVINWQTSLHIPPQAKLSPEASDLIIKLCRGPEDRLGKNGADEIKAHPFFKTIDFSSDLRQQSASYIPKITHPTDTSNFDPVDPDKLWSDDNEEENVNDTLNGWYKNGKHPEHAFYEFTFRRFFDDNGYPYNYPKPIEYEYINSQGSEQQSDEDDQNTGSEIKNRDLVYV

[2] = target: T2, LATS2 (endogenous, KLE cells) (human (endogenous in KLE)) (UniProt Q9NRM7); assay: as above
T2 sequence: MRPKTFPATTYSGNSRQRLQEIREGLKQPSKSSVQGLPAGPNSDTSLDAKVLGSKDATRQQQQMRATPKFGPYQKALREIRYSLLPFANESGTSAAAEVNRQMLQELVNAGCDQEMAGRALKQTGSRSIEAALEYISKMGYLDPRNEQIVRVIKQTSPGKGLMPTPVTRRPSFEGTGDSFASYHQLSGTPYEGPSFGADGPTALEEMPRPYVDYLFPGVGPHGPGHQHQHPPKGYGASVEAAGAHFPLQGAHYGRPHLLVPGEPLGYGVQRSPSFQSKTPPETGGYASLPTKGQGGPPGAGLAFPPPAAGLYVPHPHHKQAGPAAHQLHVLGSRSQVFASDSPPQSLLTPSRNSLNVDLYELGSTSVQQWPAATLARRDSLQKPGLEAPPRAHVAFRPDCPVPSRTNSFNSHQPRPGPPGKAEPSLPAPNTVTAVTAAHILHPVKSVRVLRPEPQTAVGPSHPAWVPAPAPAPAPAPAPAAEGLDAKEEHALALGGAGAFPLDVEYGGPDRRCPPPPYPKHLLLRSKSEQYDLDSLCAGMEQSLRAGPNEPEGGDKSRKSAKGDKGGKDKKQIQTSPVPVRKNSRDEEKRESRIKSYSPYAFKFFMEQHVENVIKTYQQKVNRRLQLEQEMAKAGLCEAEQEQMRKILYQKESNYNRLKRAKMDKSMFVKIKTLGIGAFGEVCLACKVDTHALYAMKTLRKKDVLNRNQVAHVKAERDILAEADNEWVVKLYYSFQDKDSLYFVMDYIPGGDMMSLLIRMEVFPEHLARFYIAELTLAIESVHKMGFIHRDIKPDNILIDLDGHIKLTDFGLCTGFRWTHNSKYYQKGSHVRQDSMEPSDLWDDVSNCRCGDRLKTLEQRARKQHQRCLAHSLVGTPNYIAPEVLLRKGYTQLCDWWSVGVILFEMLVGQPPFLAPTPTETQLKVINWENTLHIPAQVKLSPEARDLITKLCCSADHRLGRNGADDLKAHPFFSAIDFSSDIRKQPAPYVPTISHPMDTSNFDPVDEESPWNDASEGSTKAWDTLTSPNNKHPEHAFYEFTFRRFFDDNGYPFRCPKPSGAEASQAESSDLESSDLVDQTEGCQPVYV

Flag-LATS1 = target: T3, Flag-LATS1 (UniProt O95835); assay: co-IP; Flag-LATS1 or Flag-LATS2 and myc-STAT1 co-expressed in 293T cells for 24 h; lysis in 50 mM Tris-HCl pH 8.0, 150 mM NaCl, 0.05 mM EDTA, 1% NP40, 10% glycerol; immunoprecipitated overnight with anti-FLAG beads; western blotting
T3 sequence: T1 sequence

Flag-LATS2 = target: T4, Flag-LATS2 (UniProt Q9NRM7); assay: as above
T4 sequence: T2 sequence

binding [1] | binding [2] | binding (Flag-LATS1) | binding (Flag-LATS2) | Substance
binds | binds |  |  | STAT1 (endogenous, KLE cells) (from UniProt P42224 1-750)
 |  | binds | binds | myc-STAT1 (from UniProt P42224 1-750)
